{"source": "PubChem BioAssay AID540276", "about": "(National Center for Advancing Translational Sciences (NCATS), 2011)", "note": "The whole screen tested about 300,000 compounds, of which about 5,400 (1.8%) were called active. This list was built around the results that the source calls inconclusive (neither active nor inactive); the mix of calls is not that of the screen. Calls come from the whole dose curve; tested in HEK293 cells. Potencies beside an inconclusive call are fits to weak or partial responses and may not hold up.", "data": [{"assay": "qHTS for inhibitors of binding or entry into cells for Marburg Virus; note: potency is the fitted concentration of half-maximal effect; for activity change, negative = inhibition: % is set by controls: 0 for no effect and ±100 for the full control effect", "conditions": "Marburg virus pseudotyped entry inhibition, cell reporter; activity change, negative = inhibition: at 37.8 µM (top of the series) unless noted", "values": [{"compound": "CC1CN(S(=O)(=O)c2ccc(C(=O)N3CCc4ccccc43)cc2)CC(C)O1", "note": "(stereo not given)", "Potency": "inconclusive: 5.62 µM [inhibitor, single point]"}, {"compound": "Cc1ccc(C(=O)N/C(=C\\c2cccs2)C(=O)NCCc2c[nH]c3ccccc23)cc1", "Potency": "inconclusive: 35.5 µM [inhibitor, partial curve, poor fit]"}, {"compound": "COc1ccc(-n2c(=S)[nH]c3cc(C(=O)Nc4ccc(F)cc4)ccc3c2=O)c(OC)c1", "Potency": "inconclusive: 0.562 µM [inhibitor, full curve, poor fit]"}, {"compound": "Cc1ccc(S(=O)(=O)CCC(=O)NCCN2C(=O)S/C(=C/c3ccc(F)cc3)C2=O)cc1", "Potency": "inconclusive: 3.98 µM [inhibitor, single point]"}, {"compound": "OC(CN1CCOCC1)Cn1cnc2ccccc21", "note": "(stereo not given)", "Potency": "inconclusive: 12.6 µM [activator, partial curve, poor fit]"}, {"compound": "CC(C)Nc1ccc(Nc2ccnc3cc4ccccc4cc23)cc1", "Potency": "active: 5.17 µM"}, {"compound": "Cc1[nH]c(=O)[nH]c(=O)c1CSc1nnc([C@@H](NC(=O)OC(C)(C)C)C(C)C)o1", "Potency": "inconclusive: 1.78 µM [activator, partial curve, poor fit]"}, {"compound": "CCC1CCCCN1CCN1C(=O)C2C(C(=O)Nc3ccc(OC)cc3)C3C=CC2(O3)C1C(=O)NC1CCCCC1", "note": "(stereo not given)", "Potency": "inconclusive: 28.2 µM [inhibitor, single point]"}, {"compound": "CCC(Sc1nc2cc(OC)c(OC)cc2c(=O)n1Cc1ccc(OC)cc1)C(=O)NCCOC", "note": "(stereo not given)", "Potency": "inconclusive: 1.12 µM [inhibitor, full curve, poor fit]"}, {"compound": "O=C(NCCCN1CCOCC1)c1c(O)c2ccccc2[nH]c1=O", "activity change, negative = inhibition": "inactive: -0.278%"}, {"compound": "Cc1sc(NC(=O)c2ccco2)c(CN2CCCCC2)c1C", "Potency": "inconclusive: 9.2 µM [inhibitor, partial curve]"}, {"compound": "COc1ccc(Oc2c(Cl)cnn(-c3ccc(C)cc3)c2=O)cc1", "Potency": "active: 10 µM"}, {"compound": "CC(=O)Oc1ccc(C(=O)Nc2ccc3c(c2)OCCO3)cc1", "Potency": "inconclusive: 11.2 µM [inhibitor, partial curve, poor fit]"}, {"compound": "CN1CCN(Cc2ccc(OCc3ccccc3)cc2)CC1", "Potency": "inconclusive: 0.58 µM [activator, full curve, poor fit]"}, {"compound": "COc1cccc(-c2nn(C)c3sc(C(=O)NCc4ccc(C)o4)cc23)c1", "Potency": "inconclusive: 35.5 µM [inhibitor, single point]"}, {"compound": "Cc1nn(CC(=O)NCc2ccc(OC(C)C)cc2)c(=O)c2cc3occc3n12", "activity change, negative = inhibition": "inactive: -0.142%"}, {"compound": "O=C(NCCCc1ccccc1)Nc1ccccc1", "activity change, negative = inhibition": "inactive: 14.8%"}, {"compound": "Cc1ccc(C(C)C)c(OCc2ccc(C(=O)N/N=C/c3ccc(O)c(O)c3)cc2)c1", "Potency": "inconclusive: 8.2 µM [inhibitor, partial curve, poor fit]"}, {"compound": "Fc1ccc(CNC(=S)Nc2ccc(OC(F)F)cc2)cc1", "Potency": "inconclusive: 32.6 µM [inhibitor, single point]"}, {"compound": "Cc1cccc(N=C/C(C(=O)C(F)(F)F)=C(\\O)c2ccco2)c1", "Potency": "inconclusive: 0.794 µM [activator, partial curve, poor fit]"}, {"compound": "CCOc1c(S(=O)(=O)NC2CC(C)(C)NC(C)(C)C2)ccc(Cl)c1Cl", "Potency": "active: 10 µM"}, {"compound": "CN(CC(=O)Nc1ccc(S(=O)(=O)N2CCCC2)cc1)Cc1ccc(Cl)cc1Cl", "Potency": "inconclusive: 20.6 µM [inhibitor, single point]"}, {"compound": "O=C(NC1CCCCC1)C(c1cccnc1)N(C(=O)CCl)c1ccc(F)cc1", "note": "(stereo not given)", "Potency": "inconclusive: 4.47 µM [inhibitor, full curve, poor fit]"}, {"compound": "COc1ccc2c(c1)C(c1ccc(C)o1)=NNC(c1cccnc1)=N2", "Potency": "inconclusive: 0.794 µM [inhibitor, single point]"}, {"compound": "CC(C)c1ccc2c(c1)[C@H]1OCC[C@H]1[C@@H](c1cccs1)N2", "Potency": "inconclusive: 2 µM [inhibitor, full curve, poor fit]"}, {"compound": "c1ccc(-c2noc(CN3CCN(C(c4ccccc4)c4ccccc4)CC3)n2)cc1", "Potency": "inconclusive: 29.1 µM [inhibitor, single point]"}, {"compound": "Cc1ccc(NS(=O)(=O)c2cccc(C(=O)NCC(c3ccco3)N3CCCCC3)c2)cc1", "note": "(stereo not given)", "Potency": "inconclusive: 14.1 µM [inhibitor, partial curve, poor fit]"}, {"compound": "O=C1CNC(=O)/C1=C\\N1CCCCC1", "Potency": "inconclusive: 1.46 µM [activator, full curve, poor fit]"}, {"compound": "Cc1nn(CC(=O)Nc2ccc3c(c2)nc(CN2CCCCC2)n3C)c(=O)c2ccccc12", "Potency": "inconclusive: 35.5 µM [activator, partial curve, poor fit]"}, {"compound": "COc1ccc(NC(=O)NCc2cccnc2)cc1OC", "activity change, negative = inhibition": "inactive: 12.1%"}, {"compound": "FC(F)(F)c1ccc(Cl)c(-n2c(-c3cc(-c4ccco4)[nH]n3)n[nH]c2=S)c1", "activity change, negative = inhibition": "inactive: -26.9%"}, {"compound": "CCOC(=O)c1oc2nc3c(cc2c1N)CCCC3", "Potency": "inconclusive: 35.5 µM [inhibitor, single point]"}, {"compound": "Cc1ccc(NC(=O)CCSc2ccccn2)cc1", "Potency": "inconclusive: 29.1 µM [inhibitor, single point]"}, {"compound": "COc1ccc(/C=C/c2cc(=O)c3cc(Cl)ccc3o2)cc1", "Potency": "inconclusive: 0.316 µM [activator, partial curve, poor fit]"}, {"compound": "CN(CCO)C(=O)c1ccc(-c2nn(C)c(=O)c3ccccc23)cc1", "Potency": "inconclusive: 4.47 µM [inhibitor, full curve]"}, {"compound": "CC(=O)Nc1ccc(-n2c(=O)c3ccccc3c3ccccc3c2=O)cc1", "activity change, negative = inhibition": "inactive: -8.6%"}, {"compound": "Nc1nnc(SCC(=O)Nc2nnc(-c3ccccc3)o2)s1", "Potency": "inconclusive: 0.178 µM [activator, full curve, poor fit]"}, {"compound": "O=C(NNc1ccccc1)C(=O)NNS(=O)(=O)c1ccc([N+](=O)[O-])cc1", "Potency": "inconclusive: 0.794 µM [inhibitor, full curve, poor fit]"}, {"compound": "Cc1ccc2c(c1)-c1c(cnn1CC(=O)N1CCN(c3cc(C)ccc3C)CC1)CO2", "activity change, negative = inhibition": "inactive: 6.09% [at 46.1 µM]"}, {"compound": "COc1cc(C2=NOC(C(=O)NCc3ccc(F)cc3)C2)cc(OC)c1OC", "note": "(stereo not given)", "Potency": "inconclusive: 1.03 µM [inhibitor, full curve, poor fit]"}, {"compound": "CN1CCC(N(C)C(=S)NC(=O)C23CC4CC(CC(C4)C2)C3)CC1", "Potency": "inconclusive: 8.91 µM [inhibitor, partial curve, poor fit]"}, {"compound": "CCCCn1c(N)c(N(CC(C)C)C(=O)c2cc(-c3ccncc3)nc3ccccc23)c(=O)[nH]c1=O", "Potency": "inconclusive: 5.01 µM [activator, single point]"}, {"compound": "Cc1ccc(NCC(=O)N/N=C\\c2ccc[nH]2)cc1", "Potency": "active: 3.16 µM"}, {"compound": "O=C(CSc1nc2ccccc2[nH]1)N1c2ccccc2Sc2ccccc21", "Potency": "inconclusive: 1.26 µM [inhibitor, single point]"}, {"compound": "O=[N+]([O-])c1cccc(S(=O)(=O)N2CCCC2)c1", "Potency": "inconclusive: 35.5 µM [activator, single point]"}, {"compound": "O=C(c1cc([N+](=O)[O-])cc([N+](=O)[O-])c1)N(Cc1nnc(-c2ccccc2Cl)o1)C1CC1", "Potency": "inconclusive: 10 µM [inhibitor, partial curve, poor fit]"}, {"compound": "O=C1CN(C(=O)c2cc([N+](=O)[O-])ccc2Cl)C(c2ccccc2)c2cc(F)ccc2N1", "note": "(stereo not given)", "Potency": "inconclusive: 3.98 µM [inhibitor, full curve, poor fit]"}, {"compound": "Nc1c(C(=O)NCc2ccco2)c2nc3ccccc3nc2n1CCN1CCCCC1", "Potency": "active: 8.2 µM"}, {"compound": "CCn1cc(C(=O)NCc2ccco2)c(=O)c2cc(S(=O)(=O)N3CCCCCC3)ccc21", "Potency": "inconclusive: 1.16 µM [inhibitor, full curve, poor fit]"}, {"compound": "O=C(O)c1cc(N/N=C/c2ccc3c(c2)OCCO3)ccc1Cl", "Potency": "inconclusive: 1.26 µM [inhibitor, full curve, poor fit]"}, {"compound": "Cc1nn(Cc2ccc(Cl)cc2)c(C)c1NC(=O)CCCn1nc([N+](=O)[O-])c(Cl)c1C", "Potency": "inconclusive: 35.5 µM [inhibitor, single point]"}, {"compound": "COc1ccc2c(c1)CCN=C2Cc1ccc(OC)c(OC)c1", "Potency": "inconclusive: 22.4 µM [inhibitor, single point]"}, {"compound": "Cc1csc(NC(=O)c2ccccc2[N+](=O)[O-])n1", "activity change, negative = inhibition": "inactive: 8.78%"}, {"compound": "O=C1CC2(CCN(C(=O)c3ccc(Br)cc3)CC2)Oc2ccccc21", "Potency": "inconclusive: 35.5 µM [inhibitor, single point]"}, {"compound": "CCN(CC)CCn1c(=N)n(CCOc2ccccc2Cl)c2ccccc21", "Potency": "inconclusive: 6.31 µM [inhibitor, full curve, poor fit]"}, {"compound": "O=c1c2ccccc2nc(CNc2ccccc2)n1-c1ccccc1", "activity change, negative = inhibition": "inactive: 10.3% [at 46.1 µM]"}, {"compound": "O=C(CN1C(=O)NC2(CCc3ccccc32)C1=O)c1ccccc1", "note": "(stereo not given)", "activity change, negative = inhibition": "inactive: 16.5% [at 46.1 µM]"}, {"compound": "CC(NC(=O)C1CCCN1S(=O)(=O)c1ccccc1)c1ccccc1", "note": "(stereo not given)", "activity change, negative = inhibition": "inactive: -2.95%"}, {"compound": "CC(C)(C)NC(=O)NC(=O)CSc1ncc(C(F)(F)F)cc1Cl", "Potency": "inconclusive: 29.1 µM [inhibitor, single point]"}, {"compound": "CCCSc1nc(-n2ncc(C#N)c2N)c2c3c(sc2n1)CCC(C)C3", "note": "(stereo not given)", "Potency": "inconclusive: 8.2 µM [inhibitor, partial curve, poor fit]"}, {"compound": "O=C1SCC(c2ccccc2)=NN1Cc1ccccc1", "activity change, negative = inhibition": "inactive: -14.2%"}, {"compound": "Cn1c(SCC(=O)c2ccccc2)nnc1C1COc2ccccc2O1", "note": "(stereo not given)", "activity change, negative = inhibition": "inactive: 16.7% [at 46.1 µM]"}, {"compound": "COc1cc(C2CC(=O)N(CC(=O)NCc3ccco3)c3ccccc3S2)cc(OC)c1OC", "note": "(stereo not given)", "Potency": "inactive"}, {"compound": "Cc1ccc(S(=O)(=O)N2CCN(C(=O)CN3CCCSc4ccccc43)CC2)cc1", "Potency": "inconclusive: 35.5 µM [inhibitor, single point]"}, {"compound": "COc1cccc(CN(C)C(=O)c2cc(S(=O)(=O)NC3CCCCC3)ccc2C)c1", "Potency": "inconclusive: 35.5 µM [inhibitor, partial curve, poor fit]"}]}]}
